Common to all, as to test: DAPPL (digital affinity profiling via proximity ligation, sequencing)
Holding throughout (conditions): 10 mM Tris-HCl pH 7.5, 50 mM NaCl, 1 mM DTT, 4% glycerol, room temperature, 30 min; GST-TFs on glutathione beads, 16-mer random dsDNA library, 0.1% …; high values mean tight binding; double strand, one strand shown; scale: fold enrichment (6-mer frequency, TF over GST control)

For one assay, the target named is T1, ELK1 (UniProt P19419).
T1 sequence: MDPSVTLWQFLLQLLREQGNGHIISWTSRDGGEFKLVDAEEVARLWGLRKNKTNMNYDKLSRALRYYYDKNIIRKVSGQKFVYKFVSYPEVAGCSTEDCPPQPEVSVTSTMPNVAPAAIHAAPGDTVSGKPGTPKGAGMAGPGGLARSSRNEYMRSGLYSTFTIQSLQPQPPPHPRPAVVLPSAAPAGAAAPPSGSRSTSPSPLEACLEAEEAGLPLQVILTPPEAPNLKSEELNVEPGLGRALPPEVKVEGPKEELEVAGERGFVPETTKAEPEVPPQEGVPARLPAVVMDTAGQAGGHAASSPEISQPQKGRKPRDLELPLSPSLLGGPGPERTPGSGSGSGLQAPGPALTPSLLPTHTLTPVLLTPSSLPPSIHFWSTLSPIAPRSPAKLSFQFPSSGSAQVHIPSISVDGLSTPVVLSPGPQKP

Another assay addresses T2, ELK3 (UniProt P41970).
T2 sequence: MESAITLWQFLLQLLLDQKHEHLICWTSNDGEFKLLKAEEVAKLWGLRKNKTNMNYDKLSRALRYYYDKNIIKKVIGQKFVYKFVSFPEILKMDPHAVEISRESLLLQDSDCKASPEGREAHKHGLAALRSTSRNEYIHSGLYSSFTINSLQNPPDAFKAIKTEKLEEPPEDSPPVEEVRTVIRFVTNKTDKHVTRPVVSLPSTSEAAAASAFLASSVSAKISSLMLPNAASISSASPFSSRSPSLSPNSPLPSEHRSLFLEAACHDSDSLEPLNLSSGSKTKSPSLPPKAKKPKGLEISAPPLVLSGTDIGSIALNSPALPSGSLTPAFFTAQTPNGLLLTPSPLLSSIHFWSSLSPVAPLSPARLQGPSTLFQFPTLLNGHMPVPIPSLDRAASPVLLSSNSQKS

The next assay addresses T3, SPIC (UniProt Q8N5J4).
T3 sequence: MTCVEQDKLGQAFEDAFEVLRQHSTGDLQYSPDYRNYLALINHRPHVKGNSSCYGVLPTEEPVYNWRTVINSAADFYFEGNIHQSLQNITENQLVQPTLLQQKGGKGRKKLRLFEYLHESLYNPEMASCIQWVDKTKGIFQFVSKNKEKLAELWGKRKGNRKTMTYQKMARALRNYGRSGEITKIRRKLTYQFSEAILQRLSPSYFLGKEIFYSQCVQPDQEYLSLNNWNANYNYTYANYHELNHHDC

For another assay, the target named is T4, ETS2 (UniProt P15036).
T4 sequence: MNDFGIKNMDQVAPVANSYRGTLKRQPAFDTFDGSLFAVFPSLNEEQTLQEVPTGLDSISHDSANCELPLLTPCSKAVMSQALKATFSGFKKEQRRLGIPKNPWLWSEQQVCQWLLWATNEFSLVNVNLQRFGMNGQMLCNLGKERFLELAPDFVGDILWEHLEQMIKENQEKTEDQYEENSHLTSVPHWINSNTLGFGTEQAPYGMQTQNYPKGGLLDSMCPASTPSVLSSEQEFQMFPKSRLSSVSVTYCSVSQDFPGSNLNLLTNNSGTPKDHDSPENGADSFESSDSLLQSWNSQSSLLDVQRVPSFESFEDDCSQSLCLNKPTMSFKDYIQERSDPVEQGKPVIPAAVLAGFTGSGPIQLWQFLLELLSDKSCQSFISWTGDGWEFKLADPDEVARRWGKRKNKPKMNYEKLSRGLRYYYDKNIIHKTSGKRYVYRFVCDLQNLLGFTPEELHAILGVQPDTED

A further assay concerns the target T5, ETV3 (UniProt P41162-2).
T5 sequence: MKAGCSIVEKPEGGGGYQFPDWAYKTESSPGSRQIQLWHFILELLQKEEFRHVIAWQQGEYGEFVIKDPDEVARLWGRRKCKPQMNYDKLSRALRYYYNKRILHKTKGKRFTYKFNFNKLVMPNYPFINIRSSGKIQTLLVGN

The entries are a selection whose mix differs from that of the whole data set. At the low end of the ranking the order means little.

For GGGCTG, the binding signal with ELK1 worked out at 0.92; with ELK3, 0.879; with SPIC, 0.799; with ETS2 it was 0.922; with ETV3, 0.879.
CAGTTA: the binding signal in the assay with ELK1 was found to be 0.781; with ELK3, 0.845; with SPIC it was 0.627; with ETS2, 0.757; in the assay with ETV3, 0.771.
With GGTGAG, the binding signal with ELK1 came out at 0.384; with ELK3 it was 0.38; in the assay with SPIC, 0.362; in the assay with ETS2, 0.383; with ETV3 it was 0.361.
Consider AAGTGA, for which the binding signal with ELK1 came out at 0.62; with ELK3, 0.681; with SPIC it was 0.635; with ETS2, 0.581; with ETV3, 0.698.
The like results for GGCACA were, in that order, 0.798, 0.741, 0.884, 0.839 and 0.9.
As for CAGGTA, the binding signal with ELK1 amounted to 0.848; in the assay with ELK3, 0.683; with SPIC, 0.814; in the assay with ETS2, 0.739; in the assay with ETV3, 0.855.
Turning to GGACGA, the binding signal with ELK1 is 0.56; with ELK3 it was 0.649; with SPIC, 0.617; with ETS2, 0.59; with ETV3 it was 0.638.
For the sequence GCAAGG, the binding signal with ELK1 was found to be 0.814; in the assay with ELK3, 0.793; with SPIC, 0.831; with ETS2 it was 0.842; in the assay with ETV3 it was 0.793.
Consider AGACCA, for which the binding signal is 0.668 with ELK1; 0.596 with ELK3; 0.659 with SPIC; 0.658 in the assay with ETS2; 0.612 in the assay with ETV3.
Take GGGTGT: the binding signal in the assay with ELK1 worked out at 0.697; with ELK3, 0.744; with SPIC, 0.759; with ETS2, 0.772; in the assay with ETV3, 0.773.
Turning to GGCAGG, the binding signal with ELK1 is 0.636; in the assay with ELK3 it was 0.609; in the assay with SPIC it was 0.585; in the assay with ETS2, 0.651; with ETV3 it was 0.58.
As to GGACTA, the binding signal was 0.9 with ELK1; 0.853 with ELK3; 0.804 in the assay with SPIC; 0.887 with ETS2; 0.866 in the assay with ETV3.
Consider TAGGGG, for which the binding signal in the assay with ELK1 was found to be 0.849; with ELK3, 0.874; in the assay with SPIC it was 0.794; with ETS2, 0.802; with ETV3, 0.897.
Take TGGGTC: the binding signal with ELK1 was 0.705; with ELK3 it was 0.64; with SPIC it was 0.652; with ETS2, 0.658; with ETV3, 0.615.
On to GTCCGA, for which the binding signal with ELK1 was determined as 0.79; with ELK3, 0.694; with SPIC, 0.869; in the assay with ETS2, 0.91; with ETV3, 0.843.
Consider TCAGGC, for which the binding signal is 0.723 with ELK1; 0.809 with ELK3; 0.827 with SPIC; 0.703 with ETS2; 0.709 with ETV3.
As for GGCCGG, the binding signal with ELK1 came out at 0.576; with ELK3 it was 0.614; in the assay with SPIC, 0.533; in the assay with ETS2 it was 0.616; with ETV3 it was 0.574.
As to ACCAGC, the binding signal came to 0.846 with ELK1; 0.874 with ELK3; 0.824 with SPIC; 0.917 with ETS2; 0.867 with ETV3.
As for TGTGTG, the binding signal in the assay with ELK1 came out at 0.85; in the assay with ELK3, 0.864; with SPIC, 0.737; with ETS2, 0.905; in the assay with ETV3, 0.906.
As for GGTGTC, the binding signal in the assay with ELK1 amounted to 0.802; with ELK3, 0.758; with SPIC it was 0.836; in the assay with ETS2, 0.78; with ETV3 it was 0.826.
As for AGTAAG, the binding signal with ELK1 was determined as 0.754; in the assay with ELK3, 0.847; in the assay with SPIC, 0.882; with ETS2 it was 0.759; with ETV3, 0.76.
As to ATCGTG, the binding signal with ELK1 turned out to be 0.413; with ELK3 it was 0.443; in the assay with SPIC, 0.389; with ETS2 it was 0.416; in the assay with ETV3, 0.405.
For GCGAGA, the binding signal turned out to be 0.508 with ELK1; 0.505 with ELK3; 0.526 with SPIC; 0.533 with ETS2; 0.475 in the assay with ETV3.
For GAGCAT, the binding signal with ELK1 was found to be 0.75; in the assay with ELK3, 0.757; with SPIC it was 0.901; with ETS2, 0.726; with ETV3, 0.752.
Regarding GAGGCA, the binding signal is 0.407 with ELK1; 0.421 with ELK3; 0.468 with SPIC; 0.461 with ETS2; 0.427 with ETV3.
As to AGGAGG, the binding signal with ELK1 turned out to be 0.21; in the assay with ELK3, 0.245; with SPIC, 0.24; in the assay with ETS2 it was 0.227; with ETV3 it was 0.227.
With CAGGGA, the binding signal turned out to be 0.538 with ELK1; 0.455 with ELK3; 0.489 with SPIC; 0.542 with ETS2; 0.486 in the assay with ETV3.
For CATGTG, the binding signal was found to be 0.805 with ELK1; 0.798 with ELK3; 0.804 with SPIC; 0.836 with ETS2; 0.798 with ETV3.
Consider GTCGGG, for which the binding signal worked out at 0.246 in the assay with ELK1; 0.246 with ELK3; 0.241 in the assay with SPIC; 0.22 with ETS2; 0.229 with ETV3.
